In patent publication US20030228365A1, “Pharmaceutical formulation” (priority 2002, published 2003):
The name of at least one read-out is uncertain. Where a SMILES comes first, the peptide text is derived from it.

Details: gel dissolved in aqueous acetonitrile, diluted with water, filtered, HPLC
Protocol: A sample of the compound of formula (Ia) in PLG gel was dissolved in aqueous acetonitrile and further diluted with water. The precipitated polymer was subsequently removed by filtration through a membrane filter. The concentration of the compound of formula (Ia) in the filtrate was determined by HPLC.

## CCC[C@H](NC(=O)[C@@H](NC(=O)[C@H](NC(=O)[C@@H](NC(=O)CNC(=O)CN(C)C(C)=O)C(C)C)[C@H](C)CC)[C@@H](C)O)C(=O)N[C@H](C(=O)N[C@@H](CCCNC(=N)N)C(=O)N1CCC[C@H]1C(=O)NCC)[C@@H](C)CC [compound of formula (Ia), N-Ac-Sar-Gly-Val-DIle-Thr-Nva-Ile-Arg-ProNHCH2CH3] (HELM PEPTIDE1{[ac].[Sar].G.V.[dI].T.[Nva].I.R.P.[CCN[*:1]]}$$$$V2.0)
  recovery of the compound from the PLG gel: completely recovered
